Patent US9333193B2, “Compositions and methods for treating tuberculosis” (priority 2010, dated 2016)

What follows are compounds tested on Mycobacterium smegmatis mc2155 (assay: Anti-mycobacterial activity of nitazoxanides, MIC in Middlebrook 7H9). Conditions: none of the other mycobacterial strains decolorized the compounds.
Assay type: cell-based
Procedure: (1) Strains: Mycobacterium smegmatis mc2155, Mycobacterium chelonae EOP-1, Mycobacterium marinum ATCC 927, Mycobacterium avium Va14(T), and Mycobacterium abscessus AAy-P-1).
(2) Medium: Middlebrook 7H9 containing 0.5% (vol/vol) glycerol and 10% (vol/vol) oleic acid-albumin.
(3) Incubation Temperature: 37° C., except M. marinum 30° C.
(4) Nitazoxanides: Precipitates were present in wells of nitazoxanides with high concentrations (250-31 μg/mL) except for 162080, 162088, 16b2026, and 16b2031.
(5) Decolorization: Almost all the yellow nitazoxanides, namely 16b1090, 16b1092 and 16b1093, 16b1094, 16b2023, 16b2025, and 16b2026 were decolorized by M. smegmatis strain mc2155. None of the other mycobacterial strains decolorized the compounds. Note that the compound numbers are also referred to herein with the prefix VPC.
The strains used were Mycobacterium smegmatis mc2155, Mycobacterium chelonae EOP-1, Mycobacterium marinum ATCC 927, Mycobacterium avium Va14(T), and Mycobacterium abscessus AAy-P-1. The medium use was Middlebrook 7H9 containing 0.5% (vol/vol) glycerol and 10% (vol/vol) oleic acid-albumin. Incubation Temperature was 37° C., except for M. marinum at 30° C. For nitazoxanides, precipitates were present in wells of nitazoxanides with high concentrations (250-31 μg/mL) except for 162080, 162088, 16b2026, and 16b2031.
Decolorization: Almost all the yellow nitazoxanides, namely 16b1090, 16b1092 and 16b1093, 16b1094, 16b2023, 16b2025, and 16b2026 were decolorized by M. smegmatis strain mc2155. None of the other mycobacterial strains decolorized the compounds.

SMILES | Decolorization of the yellow compound by M. smegmatis strain mc2155
O=C(Nc1sc([N+](=O)[O-])cc1[N+](=O)[O-])c1ccoc1 [VPC16b1094] | decolorized
O=C(Nc1sc([N+](=O)[O-])cc1[N+](=O)[O-])c1cccc(C(F)(F)F)c1 [VPC16b1092] | decolorized
O=C(Nc1sc([N+](=O)[O-])cc1[N+](=O)[O-])c1ccccc1 [VPC16b1090] | decolorized
O=C(Nc1sc([N+](=O)[O-])cc1[N+](=O)[O-])c1cc(C(F)(F)F)ccc1Cl [VPC16b2026, 2-Chloro-N-(3,5-dinitrothiophen-2-yl)-5-(trifluoromethyl)benzamide] | decolorized
O=C(Nc1sc([N+](=O)[O-])cc1[N+](=O)[O-])c1cccs1 [VPC16b1093, N-(3,5-Dinitrothiophen-2-yl)thiophene-2-carboxamide] | decolorized
